Test [1] deals with PWWP-DOMAIN INTERACTOR OF POLYCOMBS1 (PWO1), fluorescent-protein fusion used for FRET-APB (Arabidopsis thaliana) (UniProt Q9M9N3). Kind of test: FRET or BRET. Background: Bioluminescence resonance energy transfer reports proximity on the nanometre scale.
Test [2] concerns the target PWWP-DOMAIN INTERACTOR OF POLYCOMBS1 (PWO1), yeast two-hybrid fusion (Arabidopsis thaliana). The experiment in a line: two-hybrid.

Chains of the proteins cited; added tags and fusions are not shown. Lines headed by an entry give the natural chain unless they say otherwise; changes in a name come on top.
UniProt Q9M9N3: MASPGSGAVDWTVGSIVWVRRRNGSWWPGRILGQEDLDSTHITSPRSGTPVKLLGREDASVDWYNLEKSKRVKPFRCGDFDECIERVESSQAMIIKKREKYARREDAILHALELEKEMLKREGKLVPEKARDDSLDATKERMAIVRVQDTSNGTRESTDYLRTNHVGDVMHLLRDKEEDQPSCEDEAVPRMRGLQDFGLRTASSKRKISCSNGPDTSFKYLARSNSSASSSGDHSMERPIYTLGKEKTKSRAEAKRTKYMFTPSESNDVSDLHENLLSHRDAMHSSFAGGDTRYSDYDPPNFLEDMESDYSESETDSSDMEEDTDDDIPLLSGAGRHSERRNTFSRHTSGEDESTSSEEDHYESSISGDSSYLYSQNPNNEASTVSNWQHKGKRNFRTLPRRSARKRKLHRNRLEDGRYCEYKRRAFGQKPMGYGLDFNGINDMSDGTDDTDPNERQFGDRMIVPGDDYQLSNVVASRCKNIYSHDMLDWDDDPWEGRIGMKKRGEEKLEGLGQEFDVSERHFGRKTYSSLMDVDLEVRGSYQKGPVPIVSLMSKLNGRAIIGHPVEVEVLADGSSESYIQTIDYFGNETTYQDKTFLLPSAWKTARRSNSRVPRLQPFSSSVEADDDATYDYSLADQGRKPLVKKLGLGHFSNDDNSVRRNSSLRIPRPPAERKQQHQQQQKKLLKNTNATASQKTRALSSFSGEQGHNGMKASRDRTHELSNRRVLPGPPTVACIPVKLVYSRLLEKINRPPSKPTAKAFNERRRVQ

No constants are given. Whether binding was seen depends on the method and setting. Binding can be weak; no strength is given. Sequences can lack the tags named with a protein. For some assays here: In cells and extracts the contact can be indirect.

B1: UBIQUITIN SPECIFIC PROTEASE 5 (UBP5), fluorescent-protein fusion used for FRET-APB (enzyme, UniProt O22207 1-924)
chain: MAEVSMGSSSSSTDLSPEEERVFIRDIAIAAEANSKEGDTFYLITQRWWQEWIEYVNQDQPCNTNDGSSLSEHCDSPGSSTLKKPSRIDNSDLIYDSSLEDPSNTSEIIETLQEGRDYVLLPQEVWNQLRSWYGGGPTLARRVISSGLSQTELAVEVYPLRLQLLLMPKSDHSAIRISKKETIRELHRRACEIFDLDSEHVRIWDYYGHQKYSLMNDLDKTLDDANLQMDQDILVEVLDINGTLSSAHIQSAQENGLVDGDSTSILIEPSKSSLAAAGGFSSSRNAFRTGSVEVSQSFDNTYSSTGVTTRGSTAGLTGLLNLGNTCFMNSAIQCLVHTPEFASYFQEDYHQEINWQNPLGMVGELALAFGDLLRKLWAPGRTPIAPRPFKAKLARFAPQFSGYNQHDSQELLAFLLDGLHEDLNRVKHKPYINSRDADGRPDEEVADEFWKNHIARNDSIIVDVCQGQYKSTLVCPICNKVSVTFDPFMYLSLPLQFNTTRAITVTVFSCDKTALPSTITVNVSKQGRCRDLIQALTNACSLKQSEELKLAEIRNNFIHRLFEDPLIPLSSIKDDDHLAAYKLSKSSENTTLLRLVLRRRDQKAGERESTVQLKPCGTPLLSSASCGDALTKGKIHCLVQNMLSPFRREESVGKKGNSDSSIPERRSARFNNTEEEDKVGGLKKAKKSNSSDLGASKLSLQLIDEDNKTINLPDNEAEAMKLPSSATVTIYLDWTPELSGMYDITCLESLPEVLKYGPTTKKARSEPLSLYACLEAFLREEPLVPDEMWFCPQCNERRQASKKLDLWRLPEVLVIHLKRFSYSRSMKHKLETFVNFPIHDLDLTKYVANKNLSQPQLYELYALTNHYGGMGSGHYTAHIKLLDDSRWYNFDDSHISHINEDDVKSGAAYVLFYRRKSDAGGKMT
On to B1, for which the binding result in test [1] is recorded as “binds”.

B2: UBIQUITIN SPECIFIC PROTEASE 5 (UBP5), yeast two-hybrid fusion (enzyme, UniProt O22207 1-924)
chain: MAEVSMGSSSSSTDLSPEEERVFIRDIAIAAEANSKEGDTFYLITQRWWQEWIEYVNQDQPCNTNDGSSLSEHCDSPGSSTLKKPSRIDNSDLIYDSSLEDPSNTSEIIETLQEGRDYVLLPQEVWNQLRSWYGGGPTLARRVISSGLSQTELAVEVYPLRLQLLLMPKSDHSAIRISKKETIRELHRRACEIFDLDSEHVRIWDYYGHQKYSLMNDLDKTLDDANLQMDQDILVEVLDINGTLSSAHIQSAQENGLVDGDSTSILIEPSKSSLAAAGGFSSSRNAFRTGSVEVSQSFDNTYSSTGVTTRGSTAGLTGLLNLGNTCFMNSAIQCLVHTPEFASYFQEDYHQEINWQNPLGMVGELALAFGDLLRKLWAPGRTPIAPRPFKAKLARFAPQFSGYNQHDSQELLAFLLDGLHEDLNRVKHKPYINSRDADGRPDEEVADEFWKNHIARNDSIIVDVCQGQYKSTLVCPICNKVSVTFDPFMYLSLPLQFNTTRAITVTVFSCDKTALPSTITVNVSKQGRCRDLIQALTNACSLKQSEELKLAEIRNNFIHRLFEDPLIPLSSIKDDDHLAAYKLSKSSENTTLLRLVLRRRDQKAGERESTVQLKPCGTPLLSSASCGDALTKGKIHCLVQNMLSPFRREESVGKKGNSDSSIPERRSARFNNTEEEDKVGGLKKAKKSNSSDLGASKLSLQLIDEDNKTINLPDNEAEAMKLPSSATVTIYLDWTPELSGMYDITCLESLPEVLKYGPTTKKARSEPLSLYACLEAFLREEPLVPDEMWFCPQCNERRQASKKLDLWRLPEVLVIHLKRFSYSRSMKHKLETFVNFPIHDLDLTKYVANKNLSQPQLYELYALTNHYGGMGSGHYTAHIKLLDDSRWYNFDDSHISHINEDDVKSGAAYVLFYRRKSDAGGKMT
On to B2, for which the binding result in test [2] is “binds”.

These data come from paper doi:10.1101/2022.11.15.516593.
